Measurements as given in patent US20220073608A1.
Where a chain is given by its changes, count along the chain named. No constants are given. Whether binding was seen depends on the method and setting. Some binding calls cover weakened binding; strength is not graded here.

T1: human SEMA4D, full length, on CHO-K1 cells (CHO-K1 hSEMA4D) (human) (UniProt Q92854)
T1 sequence (looked up): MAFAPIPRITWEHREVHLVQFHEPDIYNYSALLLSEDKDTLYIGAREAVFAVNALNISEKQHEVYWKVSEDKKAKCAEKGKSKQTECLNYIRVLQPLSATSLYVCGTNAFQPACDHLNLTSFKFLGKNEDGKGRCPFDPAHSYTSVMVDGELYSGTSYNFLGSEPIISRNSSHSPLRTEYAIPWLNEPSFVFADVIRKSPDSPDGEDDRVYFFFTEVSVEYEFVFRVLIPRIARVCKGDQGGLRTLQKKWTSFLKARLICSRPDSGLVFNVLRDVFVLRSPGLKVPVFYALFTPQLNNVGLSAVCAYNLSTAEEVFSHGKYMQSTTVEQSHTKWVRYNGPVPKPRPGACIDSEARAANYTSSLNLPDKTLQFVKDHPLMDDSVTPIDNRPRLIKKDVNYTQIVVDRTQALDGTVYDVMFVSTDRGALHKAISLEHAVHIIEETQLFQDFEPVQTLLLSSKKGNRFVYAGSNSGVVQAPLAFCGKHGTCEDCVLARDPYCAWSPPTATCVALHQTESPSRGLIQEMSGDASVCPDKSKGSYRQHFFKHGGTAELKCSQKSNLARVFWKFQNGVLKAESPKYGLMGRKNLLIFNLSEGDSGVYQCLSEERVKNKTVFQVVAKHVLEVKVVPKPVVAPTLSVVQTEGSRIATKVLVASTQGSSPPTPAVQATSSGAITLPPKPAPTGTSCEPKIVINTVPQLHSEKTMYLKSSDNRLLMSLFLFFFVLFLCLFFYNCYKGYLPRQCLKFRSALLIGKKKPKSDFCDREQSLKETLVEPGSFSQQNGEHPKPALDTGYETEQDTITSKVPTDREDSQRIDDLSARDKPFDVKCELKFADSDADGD

T2: mouse SEMA4D, full length, on CHO-K1 cells (CHO-K1 mSEMA4D) (mouse) (UniProt O09126)
T2 sequence (looked up): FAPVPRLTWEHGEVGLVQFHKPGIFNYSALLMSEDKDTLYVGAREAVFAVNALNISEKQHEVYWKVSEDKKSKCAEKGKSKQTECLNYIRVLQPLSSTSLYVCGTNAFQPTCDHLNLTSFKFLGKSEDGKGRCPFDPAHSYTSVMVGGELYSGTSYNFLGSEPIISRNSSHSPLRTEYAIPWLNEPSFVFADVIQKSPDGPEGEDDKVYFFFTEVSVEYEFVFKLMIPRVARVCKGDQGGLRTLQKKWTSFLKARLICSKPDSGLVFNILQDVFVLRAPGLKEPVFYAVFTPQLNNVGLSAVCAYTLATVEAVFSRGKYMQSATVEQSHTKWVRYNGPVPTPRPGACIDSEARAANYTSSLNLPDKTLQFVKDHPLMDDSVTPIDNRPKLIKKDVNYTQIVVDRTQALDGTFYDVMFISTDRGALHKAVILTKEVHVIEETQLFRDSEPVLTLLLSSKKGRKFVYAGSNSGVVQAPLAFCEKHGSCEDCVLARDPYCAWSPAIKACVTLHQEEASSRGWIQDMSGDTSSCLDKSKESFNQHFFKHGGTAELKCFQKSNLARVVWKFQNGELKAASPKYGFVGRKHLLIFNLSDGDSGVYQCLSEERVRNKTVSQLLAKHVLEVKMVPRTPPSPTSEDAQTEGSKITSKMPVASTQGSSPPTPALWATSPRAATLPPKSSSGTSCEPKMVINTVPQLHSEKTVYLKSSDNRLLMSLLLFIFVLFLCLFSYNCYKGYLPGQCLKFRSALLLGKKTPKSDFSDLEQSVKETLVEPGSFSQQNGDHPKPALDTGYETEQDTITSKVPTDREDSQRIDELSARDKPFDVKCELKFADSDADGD

B1: 42B7G2 (antibody, V domains shown)
VH: QVQLQQSGAELARPGASVKLSCKASGYTFTDYGISWVKQRTGQGLEWIGEIYLRNDNSYYNEKFKGKATLTADKSSNTAYMELRSLTSEDSAVYFCARWGDHGNNYEDAMDYWGQGTSVTVSS
VL: DIVLTQSPASLAMSLGKRATISCRASESVSIIGSNLIHWYQQKPGQPPKLLIYHASNLETGVPARFSGSGSRTDFTLTIDPVEEDDVAIYYCLQSRKVPYTFGGGTKLEIK
B2: 31G10C5 (antibody, V domains shown)
VH: EVQLQQSGAELVRPGASVKLSCTASGFNIKDDYIHWVKQRPEQGLEWIGWIDPANGHIEYASNFQAKATITADTSSNTAYLQLSSLTSEDTAVYYCTTGDYDGFTYWGQGTLVTVST
VL: QIVLTQSPAIMSASPGEKVTISCSARSSVSYMYWYQQKPGSSPKPWIYRTSNLASGVPARFSGSGSGTSYSLTISSMEAEDAATYYCQHYHTYPYTFGGGTKLEIK
B3: 32C8F10 (antibody, V domains shown)
VH: B2 VH with D32E, I58T, N63R, T105A
VL: B2 VL
B4: 31C11G2 (antibody, V domains shown)
VH: B2 VH with D32E, I58T, N63R, T105V
VL: B2 VL with S22F
B5: 37F11F9 (antibody, V domains shown)
VH: EVQLQQSGPVLVKPGASVKMSCKASGYTFTDYYMNWVKQSHGKSLEWIGLINPYSGGSTFNQKFKAKATLTVDKSSSSAYMDLNSLTSEDSAVYYCARVGDGYYGVTHGMDYWGQGTSVTVSS
VL: DIVMTPSQKFMSTTVGDRVSITCKASQNVGTAVAWYQQKPGQSPTILIYSASNRYTGVPDRFTGSGSGTDFTLTISNMKSEDLADYFCQQYYIYPFTFAAGTKLELK
B6: 5D8 (antibody, human IgG4, V domains shown)
VH: QVQLQESGAGLLKPSETLSLTCAVYGGSFSGYYWSWIRQPPGKGLEWIGEINHSGSTNYNPSLKSRVTISVDTSKNQFSLKLSSVTAADTAVYYCARTRYYGSGSWSLFDYWGQGTLVTVSS
VL: QPVLTQPPSASGAPGQTVTISCSGGNSNVGTNTVNWYQQLPGTAPKLLIYYDDLLASGVSDRFSGSKSGTSASLAISGLQAEEEADYYCAAWDDTLNGWVFGGGTKLTVL
B7: 2D5 (antibody, human IgG4, V domains shown)
VH: QVTLKESGPTLVKPTQTLTLACSFSGFSLTTTGVAVTWIRQPPGKALEWLALIDWDDDKYYSTSLKTRLTISKDTSKNQVVLTMTNMDPVDTATYYCARIASGDSGGYFADWGQGTLVTVSS
VL: SSELTQAPSVSVSPGQTASITCSGDKLDDKYVYWYQQKPGQPPVLVIYRDNKRPSGIPERFSGSNSGNTATLTISATQALDEADYYCQAWESSSDQYVFGTGTKVTVL
B8: 37C4F7 (antibody, V domains shown)
VH: EFQLQQSGPEVVKPGASVKISCKASGYSFTDYNMNWMKQSKGKSLEWIGVINPNYGTTTYNQNFKGKATLTVDQSSSTAYMQLNSLTSEDSAVYYCARDMYYVYAYYTMDYWGQGTSVTVSS
VL: DVVMTQTPLSLPVSLGDQASISCRSSQSLVHSNGHTYLHWYLQRPGQSPTLLIYKVSNRFSGVPDRFSGSGSGTDFTLKISRVEAEDLGVYFCSQGTHVPWTFGGGTKLEIK
B9: 38H2E3 (antibody, V domains shown)
VH: B8 VH with N52S, N54D, G66D, R98K, Q114H
VL: B8 VL with F67V, W101R

Biological target: T1, human SEMA4D, full length, on CHO-K1 cells (CHO-K1 hSEMA4D) (human)
Experiment: FACS, CHO-K1 hSEMA4D cells

binding | Binder
binds | B1
binds | B2
binds | B3
binds | B4
binds | B5
binds | B6
binds | B7
binds | B8
binds | B9

Biological target: T2, mouse SEMA4D, full length, on CHO-K1 cells (CHO-K1 mSEMA4D) (mouse)
Experiment: FACS, CHO-K1 mSEMA4D cells

binding | Binder
binds | B6
binds | B7
